This assay concerns BDF1 mice, P288 methotrexate-resistant leukemia, survival T/C. The experiment in a line: NCI In Vivo Anticancer Drug Screen. Data for tumor model P288 Lymphocytic Leukemia resistant to methotrexate; NSC 740 (intraperitoneal) in B6D2F1 (BDF1) mice. The following applies: T/C endpoint: median survival time, schedule: Q01DX010 (ip), vehicle: saline, higher T/C = longer survival. On the procedure:
The antitumor activity of compounds was measured in mice bearing transplantable tumors. Survival or tumor size were measured and the results are expressed as the measurement made in the treated group (T) divided by the measurement made in the vehicle treated control group (C). The tumor model used in this assay is P288 Lymphocytic Leukemia resistant to methotrexate; NSC 740 (intraperitoneal) in B6D2F1 (BDF1) mice

The structures appear in SMILES notation. The list does not hold the whole screen: its compounds were picked by chemical class. Other doses and runs of a compound may be missing. T/C: endpoint of the treated group in % of that of the vehicle group. Where survival is the endpoint, this PubChem deposit counts one and a half times the control or more as active, and values a quarter to a half above the control carry no call in these data; other NCI protocols may use other cut-offs. Some entries show no survivor count and are marked so; the dose need not have been tolerated. Schedules are NCI's codes, read here as Q, the interval in days (D) or hours (H), X, the number of doses. Some entries hold several experiments; the results are listed from low to high.

For `CN(CCCl)CCCl`, the T/C (dose: 0.13 mg/kg/injection) was 105 [survivor count not shown] and 156 % of control [survivor count not shown]; the T/C (dose: 0.25 mg/kg/injection) is 138 [survivor count not shown] and 156 % of control [survivor count not shown]; the T/C (dose: 0.5 mg/kg/injection) was 156 [survivor count not shown] and 177 % of control [survivor count not shown]; the T/C (dose: 1.0 mg/kg/injection) was 105 [survivor count not shown] and 112 % of control [survivor count not shown].
